Our source for the binding values is article PMC2680618.

Results are given in words; binding and its absence hold for the method and conditions named. Binding seen in cells or lysates may run through a third protein. Some results given as binding are weak or reduced against the parent protein; the word gives no strength. For some assays here: Tags and fused reporters may be left off the sequences shown.

Experiment [1] concerns the target T1, BMI1 (endogenous, mouse thymocytes) (mouse (endogenous in thymocytes)) (UniProt P25916).
T1 sequence: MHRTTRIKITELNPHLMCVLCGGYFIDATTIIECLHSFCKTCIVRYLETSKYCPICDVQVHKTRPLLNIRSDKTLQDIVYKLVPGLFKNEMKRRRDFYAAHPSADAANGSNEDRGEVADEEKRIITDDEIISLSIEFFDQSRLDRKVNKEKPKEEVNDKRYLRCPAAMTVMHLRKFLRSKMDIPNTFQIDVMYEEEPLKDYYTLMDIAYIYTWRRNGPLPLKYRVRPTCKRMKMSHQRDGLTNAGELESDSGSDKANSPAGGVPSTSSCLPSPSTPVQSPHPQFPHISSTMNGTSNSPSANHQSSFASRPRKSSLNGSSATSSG
The experiment is described as follows: co-IP; wild type non-transfected mouse thymocytes; Nuclear Complex Co-IP Kit (Active Motif); precipitated with mouse anti-BMI1, blotted with a CDC6 antibody.

The target of a further experiment is T2, HA-CDC6 (UniProt O89033).
T2 sequence: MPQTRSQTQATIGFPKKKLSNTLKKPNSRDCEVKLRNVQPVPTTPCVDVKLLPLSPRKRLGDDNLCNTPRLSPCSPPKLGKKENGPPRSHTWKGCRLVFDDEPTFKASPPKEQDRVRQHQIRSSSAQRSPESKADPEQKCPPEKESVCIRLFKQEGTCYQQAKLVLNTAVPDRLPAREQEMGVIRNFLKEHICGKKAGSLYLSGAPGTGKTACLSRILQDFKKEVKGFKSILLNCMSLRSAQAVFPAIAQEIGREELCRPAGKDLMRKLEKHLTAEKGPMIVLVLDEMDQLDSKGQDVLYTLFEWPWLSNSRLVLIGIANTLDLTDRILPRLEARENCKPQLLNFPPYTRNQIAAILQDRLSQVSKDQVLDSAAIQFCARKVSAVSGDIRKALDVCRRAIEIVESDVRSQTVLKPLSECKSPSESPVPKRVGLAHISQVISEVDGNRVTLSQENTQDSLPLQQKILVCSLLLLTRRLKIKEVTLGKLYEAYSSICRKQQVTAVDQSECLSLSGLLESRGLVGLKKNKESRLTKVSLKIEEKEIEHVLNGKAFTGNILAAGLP
The experiment in a line: co-IP; NIH3T3 cells transiently transfected with pCG-HAcdc6, 72 h; Nuclear Complex Co-IP Kit (Active Motif); precipitated with mouse anti-HA, blotted with a BMI1 antibody.

B1: CDC6 (endogenous, mouse thymocytes) (protein, UniProt O89033 1-562)
chain: T2 sequence
Regarding B1, the binding entry in experiment [1] was “binds”.

B2: BMI1 (endogenous, NIH3T3 cells) (protein, UniProt P25916 1-324)
chain: T1 sequence
In the case of B2, the binding entry in the experiment with HA-CDC6 is given as “binds”.
